Data from the supplement of paper PMC4604168 (melanoma cell lines).
Some of the results follow. Many values rest on one well or one pass, so single values are uncertain.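 Imaging used 1,536-well plates; nuclei positive for cleaved PARP by antibody were divided by total DNA-stained nuclei to yield the apoptosis fraction. Doses for screening kept most cells viable, and cell lines differ markedly in resting and induced cleaved-PARP levels.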

What follows are molecules tested on COLO829 (assay: cleaved PARP positive nuclei fraction relative to DMSO control; melanoma cells; higher = more apoptosis). Details: library dose: low library concentration; 72 h.

Structure (SMILES)	cleaved PARP positive nuclei fraction [%]
CCc1ccc(CCOc2ccc(CC3SC(=O)NC3=O)cc2)nc1 (stereo unspecified) [pioglitazone] + COc1ccc(COc2ccc(Cc3cnc(N)nc3N)cc2OC)cc1 [GW2580] (first compound 2 µM, partner dose 1 µM)	86.5
COc1cc2c(Oc3ccc4[nH]c(C)cc4c3F)ncnc2cc1OCCCN1CCCC1 [cediranib] + CCc1ccc(CCOc2ccc(CC3SC(=O)NC3=O)cc2)nc1 [pioglitazone] (first compound 0.4 µM, partner dose 2 µM)	62.8
COc1ccc(-c2ccc3c(N4CCOCC4)nc(N4C[C@@H](C)O[C@@H](C)C4)nc3n2)cc1CO + COc1cc2ncnc(Nc3ccc(Oc4ccccc4)cc3)c2cc1OC [SrcI1] (first compound 0.02 µM, partner dose 2 µM)	99
O=C(O)c1ccc(-c2c[nH]c3ncc(-c4ccccc4)cc23)cc1C1CCCC1 + O=S(=O)(c1ccccc1)N(CC(F)(F)F)c1ccc(C(O)(C(F)(F)F)C(F)(F)F)cc1 [T0901317] (first compound 0.16 µM, partner dose 1.4 µM)	91.3
COc1ccc(-c2ccc3c(N4CCOCC4)nc(N4C[C@@H](C)O[C@@H](C)C4)nc3n2)cc1CO + CCN(CC)CCCCNc1ncc2cc(-c3cc(OC)cc(OC)c3)c(NC(=O)NC(C)(C)C)nc2n1 [PD173074] (first compound 0.02 µM, partner dose 0.1 µM)	163
Oc1cc(-c2nc(-c3ccccc3)[nH]c2-c2ccncc2)ccc1Cl + O=C1NC(=O)/C(=C/c2ccc(-c3ccc(F)cc3O)o2)S1 [AS252424] (first compound 0.2 µM, partner dose 1 µM)	113
CCc1ccc(CCOc2ccc(CC3SC(=O)NC3=O)cc2)nc1 (stereo unspecified) [pioglitazone] + O=C(Nc1ccccc1)c1cc([N+](=O)[O-])ccc1Cl [GW9662] (first compound 2 µM, partner dose 2 µM)	90
COc1ccc2c(c1)CCC1C2CCC2(C)C(NCCCCCCN3C(=O)C=CC3=O)CCC12 (stereo unspecified) + O=C(O)C(=O)Nc1sc2c(c1C(=O)O)CCNC2 [TCS401] (first compound 0.4 µM, partner dose 1.66667 µM)	130
CN(C)S(=O)(=O)c1ccc2c(c1)/C(=C/c1cc3c([nH]1)CCCC3)C(=O)N2 + COc1cc(N2CCC(N3CCN(C)CC3)CC2)ccc1Nc1ncc(Cl)c(Nc2ccccc2S(=O)(=O)C(C)C)n1 [NVP-TAE684] (first compound 0.4 µM, partner dose 0.08 µM)	113
CN(C)S(=O)(=O)c1ccc2c(c1)/C(=C/c1cc3c([nH]1)CCCC3)C(=O)N2 + N#Cc1c(O)c2c(-c3ccc(-c4ccccc4O)cc3)csc2[nH]c1=O [A769662] (first compound 0.4 µM, partner dose 2 µM)	111
COc1ccc2c(c1)CCC1C2CCC2(C)C(NCCCCCCN3C(=O)C=CC3=O)CCC12 (stereo unspecified) + CC(C)CCN1c2nc(Nc3cc(F)c(O)c(F)c3)ncc2N(C)C(=O)C1C [BID1870] (first compound 0.4 µM, partner dose 0.2 µM)	46.1
CCc1ccc(CCOc2ccc(CC3SC(=O)NC3=O)cc2)nc1 (stereo unspecified) [pioglitazone] + Oc1cc(-c2nc(-c3ccccc3)[nH]c2-c2ccncc2)ccc1Cl [L779450] (first compound 2 µM, partner dose 0.2 µM)	77.9
CCc1ccc(CCOc2ccc(CC3SC(=O)NC3=O)cc2)nc1 (stereo unspecified) [pioglitazone] + CC(C)CCN1c2nc(Nc3cc(F)c(O)c(F)c3)ncc2N(C)C(=O)C1C [BID1870] (first compound 2 µM, partner dose 0.2 µM)	74.9
CN(NC(=O)CC(=O)NN(C)C(=S)c1ccccc1)C(=S)c1ccccc1 + O=c1cc(-c2cccc3c2Sc2ccccc2S3)oc(N2CCOCC2)c1 [KU55933] (first compound 0.006 µM, partner dose 1 µM)	128
O=C(O)c1ccc(-c2c[nH]c3ncc(-c4ccccc4)cc23)cc1C1CCCC1 + Oc1nc(-c2ccc(C(F)(F)F)cc2)nc2c1CSCC2 [XAV939] (first compound 0.16 µM, partner dose 2 µM)	79
COc1ccc(COc2ccc(Cc3cnc(N)nc3N)cc2OC)cc1 + COc1cc(N2CCC(N3CCN(C)CC3)CC2)ccc1Nc1ncc(Cl)c(Nc2ccccc2S(=O)(=O)C(C)C)n1 [NVP-TAE684] (first compound 1 µM, partner dose 0.08 µM)	126

Looked up one by one from the entries so far:
Structure (SMILES)	cleaved PARP positive nuclei fraction [%]
O=C(O)c1ccc(-c2c[nH]c3ncc(-c4ccccc4)cc23)cc1C1CCCC1 + O=S(=O)(c1ccccc1)N(CC(F)(F)F)c1ccc(C(O)(C(F)(F)F)C(F)(F)F)cc1 [T0901317] (first compound 0.16 µM, partner dose 1.4 µM)	91.3
CCc1ccc(CCOc2ccc(CC3SC(=O)NC3=O)cc2)nc1 (stereo unspecified) [pioglitazone] + COc1ccc(COc2ccc(Cc3cnc(N)nc3N)cc2OC)cc1 [GW2580] (first compound 2 µM, partner dose 1 µM)	86.5
